Source: paper PMC5215751
No constants are given. Whether binding was seen depends on the method and setting. In cells and extracts the contact can be indirect. A yes stands for co-enrichment or nearness to the bait. Other partners may have been found.

Sequences of proteins named here, by UniProt entry; tags and fusion partners are left off.
UniProt Q13049: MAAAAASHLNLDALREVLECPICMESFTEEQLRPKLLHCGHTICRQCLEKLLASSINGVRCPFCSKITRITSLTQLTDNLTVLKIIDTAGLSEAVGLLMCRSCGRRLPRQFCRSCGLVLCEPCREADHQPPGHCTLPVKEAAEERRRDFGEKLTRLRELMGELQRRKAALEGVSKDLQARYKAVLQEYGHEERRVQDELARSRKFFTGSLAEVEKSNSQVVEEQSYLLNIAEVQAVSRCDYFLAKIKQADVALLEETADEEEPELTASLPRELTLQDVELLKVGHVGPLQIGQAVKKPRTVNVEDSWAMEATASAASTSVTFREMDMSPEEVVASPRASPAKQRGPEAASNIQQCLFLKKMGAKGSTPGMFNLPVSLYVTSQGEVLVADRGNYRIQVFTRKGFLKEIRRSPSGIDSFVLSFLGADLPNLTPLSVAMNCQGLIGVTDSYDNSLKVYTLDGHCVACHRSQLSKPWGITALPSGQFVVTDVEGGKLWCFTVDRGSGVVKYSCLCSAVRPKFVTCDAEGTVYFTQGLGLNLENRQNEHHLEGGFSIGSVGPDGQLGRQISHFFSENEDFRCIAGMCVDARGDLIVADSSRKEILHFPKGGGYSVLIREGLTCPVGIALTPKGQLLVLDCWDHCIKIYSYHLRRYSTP
UniProt P0DMV8: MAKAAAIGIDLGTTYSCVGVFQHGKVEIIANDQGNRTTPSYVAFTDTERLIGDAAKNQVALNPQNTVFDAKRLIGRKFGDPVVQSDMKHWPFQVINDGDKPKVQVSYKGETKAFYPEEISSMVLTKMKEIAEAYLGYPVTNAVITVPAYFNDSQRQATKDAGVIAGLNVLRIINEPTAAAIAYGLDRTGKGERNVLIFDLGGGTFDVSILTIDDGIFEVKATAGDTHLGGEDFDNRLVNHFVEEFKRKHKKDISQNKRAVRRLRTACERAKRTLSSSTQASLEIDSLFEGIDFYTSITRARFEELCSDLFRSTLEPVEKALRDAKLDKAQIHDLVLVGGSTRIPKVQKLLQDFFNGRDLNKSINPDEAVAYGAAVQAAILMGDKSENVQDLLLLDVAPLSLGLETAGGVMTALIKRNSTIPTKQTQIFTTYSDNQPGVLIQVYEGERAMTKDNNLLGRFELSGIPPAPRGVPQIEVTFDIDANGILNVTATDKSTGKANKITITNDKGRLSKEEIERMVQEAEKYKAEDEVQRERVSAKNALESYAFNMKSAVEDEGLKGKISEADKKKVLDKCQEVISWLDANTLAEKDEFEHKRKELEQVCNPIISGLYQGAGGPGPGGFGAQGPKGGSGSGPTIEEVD

Molecular target: MEF (myc-TEV-FLAG)-tagged TRIM32 (human) (UniProt Q13049)
Test: affinity purification with mass spectrometry; MEF-TRIM32 overexpressed in HEK293, normal culture conditions, no PKA activator; lysate immunoprecipitated with anti-myc Sepharose, released with TEV protease, immunoprecipitated with anti-FLAG Sepharose, eluted with FLAG peptide; tryptic digest, LC-MSe

endogenous HSP70 (HSPA1A) (from UniProt P0DMV8 1-641)
binding: binds
